PubChem BioAssay AID602196 | INSERM, 2012
Here is an unselected part of about 23,000 reagents tested. 455 of them (2%) were called active. 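Active includes both protection and sensitisation; some change values fall well beyond the stated -50 to +50 range.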 A number with no mark means an inactive call. Reagent sequences are not shown. Not given: the amount of reagent.

- Aim: 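Knock-downs that protect lung cancer cells from cisplatin or sensitise them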
- Cells: human A549 lung cancer cells
- Reagent: siRNA pair against human genes
- Time to read-out: 48 h transfection before cisplatin; time from cisplatin to read-out not stated
- Challenge: cisplatin at a dose killing half of control-siRNA cells; exact dose and duration not given
- Measured: 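Shift in cisplatin death relative to control siRNA, from -50 (all cells die) to +50 (no cells die); siRNAs harmful on their own scored 0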
- Reading the numbers: two-siRNA summed score (-2 to +2): higher = both siRNAs protect from cisplatin killing; -2 means both sensitise; mean protection from cisplatin (shift in death) and protection from cisplatin (shift in death), siRNA C and protection from cisplatin (shift in death), siRNA D: higher = protection from cisplatin killing
- Rule for the call: 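Each siRNA scores 0 if harmful alone by LDH or WST-1, otherwise +1 if it reduces and -1 if it increases cisplatin killing; a gene is active when both siRNAs agree (sum +2 or -2)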
- Calls: active = both siRNAs shift cisplatin killing the same way; inactive = no consistent shift, or siRNA harmful alone

target,two-siRNA summed score (-2 to +2),mean protection from cisplatin (shift in death) (%),"protection from cisplatin (shift in death), siRNA C (%)","protection from cisplatin (shift in death), siRNA D (%)"
JADE1,0,12,15.8,8.3
TRMT2A,-1,-19.2,-18.3,-20.2
IRX2-DT,0,-2.3,-10.5,6
CD300LD-AS1,0,-6.3,-2.4,-10.3
TMCC2,0,-5.7,-12.3,1
LOC439962,1,16.1,16.3,15.9
LOC388897,0,1.6,-5.9,9.1
ERRFI1,0,3,1.7,4.3
MYBPC3,0,-1.7,-11.6,8.2
GUSBP1,0,-2.3,0.2,-4.9
CRYGA,1,22.6,29.9,15.3
LOC391403,1,11.5,7.7,15.4
WDR48,0,8.4,26.4,-9.6
HCN1,0,-0.1,-17.7,17.5
MTNR1A,0,5.5,10.8,0.2
PITRM1,-1,-1.2,5.8,-8.2
ZNF277,0,7.7,25.2,-9.8
ALOX15,0,-5.6,-14.2,2.9
LOC401308,0,3.2,9.2,-2.8
SLC39A2,0,7,10.1,3.9
PRRC2A,0,13.1,17.9,8.3
DPH2,1,16.4,23,9.7
SUN5,0,1.1,3.4,-1.3
LOC283816,0,1.3,-12.2,14.8
CLTRN,0,8.7,12,5.4
PHLDA3,1,25.6,23.4,27.7
LOC441824,0,2.6,3.7,1.6
COL3A1,1,-2.6,-27,21.7
PSMD1,-1,0.2,-15.3,15.8
RASL10A,1,4.5,-6.7,15.8
FAM90A1,0,5.3,-7.9,18.5
RIOK2,0,-1.2,5.6,-7.9
LOC442427,0,11.9,11.8,12
GDF15,0,3.5,4.1,2.9
ELL2,1,17.3,22.8,11.8
NSMCE1,0,-0.7,-7.6,6.3
LOC400960,0,5,-5.1,15
NIPSNAP2,0,8.4,13.7,3.1
LOC442217,1,17.8,27.5,8.2
DCAF8L2,1,5.9,11.1,0.7
SPP1,0,0.9,-19,20.7
ADAMTS3,1,16.3,20.8,11.9
PFKFB2,0,12.2,11.4,13
LOC388965,0,12.3,14.9,9.6
CSGALNACT1,0,8.3,18.7,-2
LOC440380,1,12,7.1,16.8
NUP88,1,16.2,16.4,16
SNX24,0,-0.8,-5,3.4
TSC22D3,0,8.4,-2.3,19.1
ZBED1,0,15.8,37.5,-6
SPAG9,0,11.4,17.1,5.7
ANAPC16,0,-5.6,-3.2,-8
RIOK1,1,7.3,2.1,12.4
SEMA7A,0,6.7,12,1.3
MGC9913,1,17.2,22.3,12.1
CSRNP1,0,5.7,4.8,6.6
CCNQ,0,-8,-16.8,0.8
LOC442111,1,25.2,21.8,28.6
MED9,0,-4,-8,0
KPNA1,0,15.4,14.8,16
ZNF274,0,-1.8,5,-8.6
LOC442644,0,1.4,7.5,-4.6
LOC389778,0,0.7,-4.4,5.8
ZNF431,0,10.1,6.2,13.9
UPF3B,0,2.8,2.5,3.2
LOC441450,0,0.9,9.2,-7.4
LOC389160,0,10.5,10.1,10.9
PECR,0,6.4,27,-14.2
SH3GLB2,0,11.5,-4.2,27.2
RMP24,0,0.1,2.2,-2
RASAL1,0,11.9,0.7,23.1
LOC391661,1,15.9,16.4,15.3
SNX21,1,17.8,18,17.7

Looked up above.
Value of PSMD1 in “two-siRNA summed score (-2 to +2)”: -1
For “protection from cisplatin (shift in death), siRNA D (%)”, DCAF8L2 has 0.7
Under “protection from cisplatin (shift in death), siRNA D (%)”, LOC283816 shows 14.8
For “protection from cisplatin (shift in death), siRNA D (%)”, RMP24 is entered as -2
LOC442644, protection from cisplatin (shift in death), siRNA C (%): 7.5
For “two-siRNA summed score (-2 to +2)”, HCN1 is entered as 0
